Experimental data as given in paper PMC10362797, “Phosphorylation of USP20 on Ser334 by IRAK1 promotes IL-1β-evoked signaling in vascular smooth muscle cells and vascular inflammation” (The Journal of Biological Chemistry, 2023).
Results are given in words; binding and its absence hold for the method and conditions named. Binding seen in cells or lysates may run through a third protein. Some binding calls cover weakened binding; strength is not graded here.

Sequences of proteins named here, by UniProt entry; tags and fusion partners are left off.
UniProt Q8C6M1: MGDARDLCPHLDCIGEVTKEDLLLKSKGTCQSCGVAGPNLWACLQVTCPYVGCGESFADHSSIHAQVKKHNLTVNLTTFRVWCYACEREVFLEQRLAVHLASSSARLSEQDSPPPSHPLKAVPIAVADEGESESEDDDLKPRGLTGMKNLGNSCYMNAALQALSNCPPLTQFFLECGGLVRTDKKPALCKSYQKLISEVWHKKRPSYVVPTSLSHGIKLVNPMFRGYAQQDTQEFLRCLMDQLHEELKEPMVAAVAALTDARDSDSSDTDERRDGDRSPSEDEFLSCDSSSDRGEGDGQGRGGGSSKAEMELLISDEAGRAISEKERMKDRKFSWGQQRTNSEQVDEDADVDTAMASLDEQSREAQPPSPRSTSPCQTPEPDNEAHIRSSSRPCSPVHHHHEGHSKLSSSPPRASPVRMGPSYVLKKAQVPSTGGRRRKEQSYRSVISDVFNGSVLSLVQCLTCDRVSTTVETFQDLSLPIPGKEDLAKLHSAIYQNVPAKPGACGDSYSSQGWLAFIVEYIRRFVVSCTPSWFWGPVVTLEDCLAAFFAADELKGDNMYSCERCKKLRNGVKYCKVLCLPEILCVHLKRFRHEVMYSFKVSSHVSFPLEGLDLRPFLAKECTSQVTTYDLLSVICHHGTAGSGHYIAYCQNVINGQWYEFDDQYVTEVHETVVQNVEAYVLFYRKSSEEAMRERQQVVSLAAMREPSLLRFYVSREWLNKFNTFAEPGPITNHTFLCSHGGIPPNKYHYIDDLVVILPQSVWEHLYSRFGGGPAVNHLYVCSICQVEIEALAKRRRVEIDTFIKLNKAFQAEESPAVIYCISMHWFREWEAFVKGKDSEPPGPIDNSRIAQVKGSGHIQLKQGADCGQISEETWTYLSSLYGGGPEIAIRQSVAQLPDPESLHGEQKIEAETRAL

Target: T1, TRAF6 (TNFR-associated factor 6), endogenous (mouse (endogenous in mouse SMCs)) (UniProt P70196)
T1 sequence: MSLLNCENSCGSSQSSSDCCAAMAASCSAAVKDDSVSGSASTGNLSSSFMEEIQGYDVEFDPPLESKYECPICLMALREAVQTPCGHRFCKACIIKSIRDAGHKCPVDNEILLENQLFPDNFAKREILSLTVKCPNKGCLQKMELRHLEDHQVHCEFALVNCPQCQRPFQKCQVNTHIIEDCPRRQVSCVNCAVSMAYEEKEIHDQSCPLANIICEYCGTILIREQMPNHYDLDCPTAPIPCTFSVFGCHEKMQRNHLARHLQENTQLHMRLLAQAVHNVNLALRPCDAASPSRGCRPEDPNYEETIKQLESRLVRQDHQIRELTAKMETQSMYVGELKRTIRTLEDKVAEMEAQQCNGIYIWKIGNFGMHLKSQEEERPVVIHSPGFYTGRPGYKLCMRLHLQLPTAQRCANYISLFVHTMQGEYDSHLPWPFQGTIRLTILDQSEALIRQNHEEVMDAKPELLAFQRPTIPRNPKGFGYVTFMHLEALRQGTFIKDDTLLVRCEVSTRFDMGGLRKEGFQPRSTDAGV
Experiment: co-IP; endogenous TRAF6 immunoprecipitated with anti-TRAF6(D-10) agarose overnight at 4 °C from lysates of mouse SMCs transduced with HA-USP20, serum starved 1 h and stimulated with IL-1β (1 ng/ml, 20 min); lysis buffer 50 mM Hepes pH 7.5, 2 mM EDTA, 250 mM NaCl, 10% glycerol, 0.5% Nonidet P-40; immunoblot for HA

binding: binds
Substance: HA-tagged USP20-WT (ubiquitin-specific peptidase 20, mouse) (from UniProt Q8C6M1 1-916) (enzyme)
